PubChem BioAssay AID720505, Drosophila RNAi Screening Center, 2013
Purpose: 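Fly regulators or components of the CRAC channel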 (primary screen). Cell system: Drosophila S2R+ cells. Knock-down reagent: long dsRNA against Drosophila genes. Challenge: thapsigargin (2 µM) in calcium-free buffer to empty internal stores, then 2 mM calcium added back. Detection: 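Fluo-4 signal in 384-well plates read on a FLIPR after thapsigargin (2 µM, calcium-free) store depletion and 2 mM calcium add-back; unnormalised mean endpoint per well; screen run twice, selected wells retested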. Scale: calcium signal and retest calcium signal: higher = more calcium entry after store depletion. Active means: 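Knock-downs counted as hits when calcium entry dropped relative to STIM1 positive and Rho1 negative controls present on each plate; roughly 1500 genes called, with reductions of differing size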. Calls: active = called as lowering calcium entry; inactive = not called.
The screen tested about 20,000 reagents; this is a random part of those with a known target gene and a result. Over the whole deposit, about 2,100 (10%) got an active call. 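Raw plate signals without normalisation; calls rest on control-based scores that were not deposited; replicate 2 separates called from uncalled poorly.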 A plus sign joins genes that one reagent is predicted to hit. Reagent sequences are not shown. The record does not give: the amount of reagent, the time to read-out.

Target gene | amplicon | calcium signal, replicate 1 | calcium signal, replicate 2 | retest calcium signal, replicate 1 | retest calcium signal, replicate 2 | activity call
CG31300 | DRSC14657 | 265 | 140 | – | – | inactive
CG4238 | DRSC00090 | 61.5 | 160 | – | – | active
CG4238 | DRSC00644 | 108 | 139 | – | – | inactive
CG11970 | DRSC14157 | 132 | 130 | – | – | inactive
CG15530 | DRSC15067 | 96 | 92.3 | – | – | inactive
Cht8 | DRSC04546 | 42.6 | 163 | – | – | inactive
GstE2 | DRSC06672 | 126 | 91.8 | – | – | inactive
CG5532 | DRSC04509 | 60.9 | 92.7 | – | – | inactive
CG34289 | DRSC13625 | – | – | – | – | inactive
nur | DRSC01342 | 171 | 77.4 | – | – | inactive
Prosbeta5 | DRSC07517 | 66.8 | 117 | – | – | active
CheA75a | DRSC10807 | 104 | 98.7 | – | – | inactive
CG14102 | DRSC10103 | 84.6 | 121 | – | – | inactive
CG10086 | DRSC14183 | 88.1 | 195 | – | – | inactive
CG10749 | DRSC09798 | 65.6 | 84.7 | – | – | inactive
spen | DRSC00839 | 43.4 | 137 | – | – | active
GCS2beta | DRSC02960 | 105 | 113 | – | – | inactive
CG42353 + CG42354 | DRSC23154 | 85.6 | 114 | – | – | inactive
Nepl17 | DRSC14880 | 124 | 187 | – | – | inactive
CG10352 | DRSC19353 | 112 | 93.5 | – | – | inactive
plx | DRSC12260 | 112 | 130 | – | – | inactive
plx | DRSC12385 | 112 | 152 | 8653 | 173 | inactive
plx | DRSC22683 | 89.7 | 169 | – | – | inactive
Ctns | DRSC15175 | 143 | 114 | – | – | inactive
Acsx1R | DRSC14339 | 141 | 121 | – | – | inactive
Rhau | DRSC03200 | 66.4 | 84.2 | – | – | active
CG4390 | DRSC15572 | 158 | 251 | – | – | inactive
GstT4 | DRSC19757 | 118 | 153 | – | – | inactive
CG4364 | DRSC02742 | 86.5 | 72.6 | – | – | inactive
inc | DRSC17954 | 109 | 113 | – | – | inactive
inc | DRSC18512 | 99.4 | 90.3 | 103 | 95.3 | inactive
CG18094 | DRSC02655 | 67.6 | 154 | – | – | inactive
RpS29 + snoRNA:Psi18S-1275 | DRSC16433 | 67.7 | 113 | – | – | active
mdy | DRSC01559 | 87 | 90.3 | – | – | inactive
mdy | DRSC02250 | 97.3 | 115 | – | – | inactive
CG3345 | DRSC00596 | 73.9 | 168 | – | – | inactive
CG14742 | DRSC14962 | 108 | 99.4 | – | – | inactive
tral | DRSC09779 | 124 | 73 | – | – | inactive
Taf9 | DRSC20326 | 195 | 185 | – | – | inactive
CR17438 | DRSC18125 | 85.4 | 113 | – | – | inactive
Sec61beta | DRSC07548 | 96.6 | 201 | 110 | 97.9 | inactive
Sec61beta | DRSC21512 | 175 | 138 | – | – | inactive
CG31467 | DRSC16048 | 123 | 101 | – | – | inactive
Twdlalpha | DRSC19914 | 102 | 171 | – | – | inactive
Mtpbeta | DRSC04663 | 102 | 125 | – | – | inactive
CG10953 | DRSC06021 | 238 | 165 | – | – | inactive
IM33 | DRSC00476 | 156 | 103 | – | – | inactive
U2A | DRSC06445 | 109 | 115 | – | – | inactive
RpS14a | DRSC18710 | 53.7 | 116 | – | – | active
TbCMF46 | DRSC02221 | 206 | 174 | – | – | inactive
CG42232 | DRSC15018 | 137 | 219 | – | – | inactive
CG42232 | DRSC15019 | 174 | 242 | – | – | inactive
CG11178 | DRSC19396 | 151 | 121 | – | – | inactive
CG18765 | DRSC15392 | 167 | 96.1 | – | – | inactive

5 of these entries, set out differently:
Target gene,amplicon,"calcium signal, replicate 1","calcium signal, replicate 2","retest calcium signal, replicate 1","retest calcium signal, replicate 2",activity call
plx,DRSC22683,89.7,169,,,inactive
Ctns,DRSC15175,143,114,,,inactive
Acsx1R,DRSC14339,141,121,,,inactive
Rhau,DRSC03200,66.4,84.2,,,active
CG4390,DRSC15572,158,251,,,inactive

Next results:
Target gene | amplicon | calcium signal, replicate 1 | calcium signal, replicate 2 | retest calcium signal, replicate 1 | retest calcium signal, replicate 2 | activity call
Glyp | DRSC00752 | 74.4 | 94.5 | – | – | inactive
nec | DRSC06769 | 166 | 120 | – | – | inactive
CG15452 | DRSC20523 | 151 | 91.3 | – | – | inactive
Cpr76Ba | DRSC11060 | 90.7 | 170 | – | – | inactive
CG7149 | DRSC03016 | 124 | 216 | – | – | inactive
CG10000 | DRSC14170 | 194 | 197 | – | – | inactive
PIG-Q | DRSC19138 | 107 | 104 | – | – | inactive
CG10996 | DRSC19363 | 63.5 | 78.5 | – | – | active
Nup205 | DRSC19432 | 112 | 96.2 | – | – | inactive
spz4 | DRSC02410 | 186 | 162 | – | – | inactive
GCC88 | DRSC14264 | 99.5 | 87.9 | – | – | inactive
Z600 | DRSC11317 | 99 | 138 | – | – | inactive
CG7564 | DRSC10880 | 86.8 | 162 | – | – | inactive
CG9044 | DRSC03130 | 119 | 185 | – | – | inactive
P5cr | DRSC16782 | 166 | 146 | – | – | inactive
His1:CG33816 + His1:CG33828 + His1:CG33819 + 21 more | DRSC21266 | 190 | 92.5 | – | – | inactive
Mapmodulin | DRSC06956 | 165 | 160 | – | – | inactive
dnk | DRSC16933 | 164 | 102 | – | – | inactive
CG43110 | DRSC05661 | 85.2 | 101 | – | – | inactive
CG11345 | DRSC08176 | 59.6 | 70.4 | – | – | inactive
kug | DRSC10911 | 98.3 | 144 | – | – | inactive
DENR | DRSC20151 | 133 | 93.9 | – | – | inactive
CG5693 | DRSC02878 | 138 | 133 | – | – | inactive
EMC1 | DRSC15455 | 79.8 | 119 | – | – | inactive
CG3529 | DRSC10369 | 125 | 101 | – | – | inactive
Hpr1 | DRSC12296 | 109 | 122 | – | – | inactive
CG3594 | DRSC04393 | 66.6 | 176 | – | – | active
CG3594 | DRSC21959 | 64.1 | 195 | – | – | inactive
Sce | DRSC16825 | 106 | 101 | – | – | inactive
CG8813 | DRSC00706 | 87.4 | 153 | – | – | inactive
CG16727 | DRSC15139 | 197 | 184 | – | – | inactive
wake | DRSC16148 | 132 | 105 | – | – | inactive
wake | DRSC16149 | 133 | 99.5 | – | – | inactive
CG4374 | DRSC15570 | 255 | 112 | – | – | inactive
PXo | DRSC09734 | 94.1 | 86.4 | – | – | inactive
CG14464 | DRSC07760 | 91.5 | 141 | – | – | inactive
CG8736 | DRSC07255 | 125 | 161 | – | – | inactive
twit | DRSC03210 | 91.4 | 96.8 | – | – | inactive
oxt | DRSC08522 | 104 | 85.4 | – | – | inactive
CG3823 | DRSC18325 | 116 | 137 | – | – | inactive
CG33958 | DRSC06472 | 157 | 168 | – | – | inactive
CG33958 | DRSC06944 | 172 | 138 | – | – | inactive
Rchy1 | DRSC02542 | 114 | 81.1 | – | – | inactive
Rchy1 | DRSC23118 | 119 | 170 | – | – | inactive
Gr36a | DRSC22663 | 94.1 | 134 | – | – | inactive
Ada2b | DRSC16531 | 114 | 122 | – | – | inactive
msopa | DRSC11895 | 90.9 | 148 | – | – | inactive
msopa | DRSC23240 | 88.5 | 171 | – | – | inactive
Crz | DRSC16615 | 96.1 | 106 | – | – | inactive
5-HT2B | DRSC16360 | 123 | 137 | – | – | inactive
5-HT2B | DRSC16362 | 138 | 132 | – | – | inactive
eIF1A | DRSC16937 | 133 | 123 | – | – | inactive
